Results are given in words; binding and its absence hold for the method and conditions named. Binding can be weak; no strength is given.

For the first test, the target named is HLA-A2 (human). Briefly: recombinant HLA-A2/peptide complexes (multimers).
GLFKCGIAV [FAPα^639-647]: the binding result was “binds”.

Another test addresses HLA-A2 (human). Nature of the test: competitive binding assay on acid-stripped JY cells, flow cytometry.
As to LLYAVYRKL [FAPα^584-592], the binding entry is reported as “binds”.

Consider GLFKCGIAV [FAPα^639-647], for which the binding entry is given as “binds”.

Consider YLESDYSKL [FAPα^113-121], for which the binding result is reported as “binds”.

As for KILEENKEL [FAPα^486-494], the binding entry is given as “binds”.

YLASKEGMV [FAPα^560-568]: the binding result is “binds”.

GLSPDRQFV [FAPα^104-112]: the binding result is reported as “binds”.

ALVCYGPGI [FAPα^463-471]: the binding entry is listed as “binds”.

The record behind these values is US20080058272A1, “Nonamer Peptides for Cancer Treatment” (priority 2006, published 2008).
